Results are given in words; binding and its absence hold for the method and conditions named.
Legend:
Test in all cases: other fluorescence titration; intrinsic tryptophan fluorescence emission spectra of the single SH3_(1), SH3_(2) or SH3_(3) domains with PRRL; both purified
[1] = target: T1, Tks4 SH3_(1) domain (residues 155–210) (human) (UniProt A1X283)
T1 sequence: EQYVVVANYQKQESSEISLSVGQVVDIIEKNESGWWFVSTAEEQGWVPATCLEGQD

[2] = target: T2, Tks4 SH3_(2) domain (residues 224–279) (human) (UniProt A1X283)
T2 sequence: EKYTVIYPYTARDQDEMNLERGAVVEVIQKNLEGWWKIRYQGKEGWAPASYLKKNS

[3] = target: T3, Tks4 SH3_(3) domain (residues 371–426) (human) (UniProt A1X283)
T3 sequence (chain, NT-647 amine-reactive dye (in the MST only)): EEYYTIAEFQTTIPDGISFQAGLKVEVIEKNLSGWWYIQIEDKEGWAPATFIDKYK

Measured: binding

B1: Tks4 PRRL fragment (residues 333–370) (domain or fragment, human)
chain: GSHMGDAKQRSPKMRQRPPPRRDMTIPRGLNLPKPPIPPQVE
notes: four N-terminal residues that are cloning artifacts; human Tks4 (SH3PXD2B), residues 333-370: proline-rich region with the PTAM (PPPRR) and the PKPPIPP motif; also called wild type PRRL; not shown: His-tag, N-terminal, cleaved
no binding: all assays above
